PubChem BioAssay AID504784 | Drosophila RNAi Screening Center, 2011
In all, the deposit lists about 17,000 reagents; below is a random part of those that have a named target and a result. 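Each column is one replicate's B-score; the combined score over replicates was not deposited, so single values may mislead.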 A plus sign joins genes that one reagent is predicted to hit. Not all columns of the deposit are shown.

Screen: 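Fly genes whose silencing alters how much lipid cells keep in droplets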 (primary screen)
Cells: Drosophila Kc167 embryonic cells
Reagent: long dsRNA against Drosophila genes, about 250 ng dsRNA per well
Time to read-out: 4 days
Treatment: cells fed 400 µM oleic acid bound to BSA
Detection: 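Cells imaged and segmented; ratio of lipid droplet area to nuclear area, log-transformed, then normalised as a B-score over the screen; higher means more stored lipid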
Direction: droplet/nuclear area B-score: higher = more stored lipid (overstorage)

The opening 7 entries as a preview:
target	DRSC id	droplet/nuclear area B-score, replicate 1	droplet/nuclear area B-score, replicate 2
CG15471	DRSC18054	1.82	0.996
Cp7Fb (Chorion protein b at 7F)	DRSC18034	-2.18	-0.543
CG3176 + CR18166 + CG32817	DRSC17271	0.00327	-4.23
CG3176 + CR18166 + CG32817	DRSC17282	-0.167	-4.05
CG3176 + CR18166 + CG32817	DRSC18288	-1.39	0.688
CG32971	DRSC01372	2.36	1.26
BubR1 (Bub1-related kinase)	DRSC04838	3.09	1.78

The listing, from the start:
target	DRSC id	droplet/nuclear area B-score, replicate 1	droplet/nuclear area B-score, replicate 2
CG15471	DRSC18054	1.82	0.996
Cp7Fb (Chorion protein b at 7F)	DRSC18034	-2.18	-0.543
CG3176 + CR18166 + CG32817	DRSC17271	0.00327	-4.23
CG3176 + CR18166 + CG32817	DRSC17282	-0.167	-4.05
CG3176 + CR18166 + CG32817	DRSC18288	-1.39	0.688
CG32971	DRSC01372	2.36	1.26
BubR1 (Bub1-related kinase)	DRSC04838	3.09	1.78
Boh2 (Buddy of Hmr 2)	DRSC02777	-1.71	-0.0417
Acp53Ea (Accessory gland protein 53Ea)	DRSC05916	-0.0533	-1.58
Tsp42Ea (Tetraspanin 42Ea)	DRSC04982	0.517	1.77
Tsp42Ea (Tetraspanin 42Ea)	DRSC06792	-0.281	0.552
CG9853	DRSC12343	-0.0443	-0.589
CG9853	DRSC22840	-0.851	-0.625
CG12521	DRSC09893	0.0201	-0.662
RhoGAP54D (Rho GTPase activating protein at 54D)	DRSC06990	-0.104	0.262
CG6749	DRSC10704	4.03	0.763
CG5611	DRSC15843	1.36	-0.729
ss (spineless)	DRSC17069	-1.05	-0.0517
CG10418	DRSC09720	-1.85	-1.55
D12	DRSC03311	0.0691	-2.94
CG9632	DRSC16528	1.15	2.33
Unc-115b + p24-2	DRSC16492	-0.999	11.5
CG5623	DRSC15848	0.0341	1.58
ecd (ecdysoneless)	DRSC08574	-0.924	-1.33
UQCR-Q (Ubiquinol-cytochrome c reductase ubiquinone-binding protein)	DRSC10886	7.38	5.11
CG13465	DRSC10011	-0.5	-2.29
Srx (Sulfiredoxin)	DRSC20005	-1.17	-1.7
CG31687 + Cdc23	DRSC23052	0.299	0.2
Hsp60A (Heat shock protein 60A)	DRSC20254	-1.37	0.109
Sgs8 (Salivary gland secretion 8)	DRSC11282	-0.029	2.29
Eh (Eclosion hormone)	DRSC16660	-1.1	-1.06
CG7115	DRSC02000	0.368	-0.0711
Tmtc1 (Transmembrane O-mannosyltransferase targeting cadherins 1)	DRSC00151	0.464	1.71
Tmtc1 (Transmembrane O-mannosyltransferase targeting cadherins 1)	DRSC00314	-2.65	-1.49
Tmtc1 (Transmembrane O-mannosyltransferase targeting cadherins 1)	DRSC00411	1	0.602
Kah (Kahuli)	DRSC07887	0.143	-1.44
Kah (Kahuli)	DRSC08515	-0.0946	-0.207
CG4496	DRSC02753	-3.22	-1.89
Qsox3 (Quiescin sulfhydryl oxidase 3)	DRSC16096	-0.106	-0.566
FAM21 (Family with sequence similarity 21)	DRSC06623	-0.961	-1.37
CG18598	DRSC15356	-1.13	0.26
CG42583	DRSC22937	-0.563	-0.552
CG6191	DRSC05938	1.02	-2.33
CG6191	DRSC23127	0.468	1.1
CG9777	DRSC20208	-0.651	1.15
Unc-115a (Uncoordinated 115a)	DRSC12749	-0.0845	-0.673
Or74a (Odorant receptor 74a)	DRSC11245	0.0552	-0.319
CG7785	DRSC16311	-1.21	-0.161
Ppt1 (Palmitoyl-protein thioesterase 1)	DRSC17806	1.79	-0.576
Mau2	DRSC15550	0.411	0.782
galla-1	DRSC05987	-1.04	1.72
Nprl3 (Nitrogen permease regulator-like 3)	DRSC11044	0.761	0.0978
CG11693	DRSC14353	-1.98	-0.0567
CG30195	DRSC04155	-0.0227	2.64
rho (rhomboid)	DRSC08734	0.0542	-0.309
TrpRS (Tryptophanyl-tRNA synthetase)	DRSC14097	1.01	1.9
